Results deposited as PubChem BioAssay AID1508588 (Peter MacCallum Cancer Centre, 2020).
The whole screen tested about 18,000 reagents; below is a part drawn at random. Over the whole deposit, 790 (4.4%) got an active call. 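Calls rest on a combination of fold-change classes in drug and vehicle arms, not all shown here.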

- Aim: 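Which gene losses make BRAF-mutant melanoma cells more responsive to vemurafenib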 (primary screen)
- Cell system: human WM266.4 melanoma cells (BRAF V600 mutant)
- Reagents: siRNA pool against human genes, 40 nM
- Timing: 96 h from transfection to read-out
- Challenge: vemurafenib 300 nM (about IC25), added 48 h after transfection, for 48 h; comparison arm got DMSO vehicle only
- Detection: 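Ratios to non-targeting siRNA for cell gain, counted as DAPI nuclei after minus before drug and averaged over two replicates, and for absorbance-read medium lactate per cell; both binned into fold-change classes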
- Direction: cell gain with vemurafenib: higher = more cell gain than with non-targeting siRNA; lactate per cell with vemurafenib: higher = more lactate made per cell
- Hit rule: 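Enhancement is called by pairing each knock-down's vehicle-arm and drug-arm fold-change classes for viability or glycolysis; which class combinations qualify is not given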
- Meaning of the calls: active = enhances vemurafenib effect; inactive = no enhancement seen

After knock-down of ZNF76 the results were cell gain with vemurafenib -0.19; lactate per cell with vemurafenib 2.93; inactive. CIRBP scored cell gain with vemurafenib 0.65; lactate per cell with vemurafenib 0.99; inactive. Against DDT, the entry reads cell gain with vemurafenib 1.08; lactate per cell with vemurafenib 0.38; inactive. For TBC1D22A the deposit lists cell gain with vemurafenib 0.66; lactate per cell with vemurafenib 1.3; inactive. MED13L showed cell gain with vemurafenib 0.38; lactate per cell with vemurafenib 1.02; inactive. For LONP2, the values are cell gain with vemurafenib 0.28; lactate per cell with vemurafenib 1.35; inactive.

Against NUDT18, the values are cell gain with vemurafenib 0.94; lactate per cell with vemurafenib 0.61; inactive. Against MPC1, the entry reads cell gain with vemurafenib 0.62; lactate per cell with vemurafenib 1.32; inactive. Knock-down of ATP6V0E1 came out at: cell gain with vemurafenib 0; lactate per cell with vemurafenib 3.46; inactive. After knock-down of PLOD1, the screen gave cell gain with vemurafenib 0.83; lactate per cell with vemurafenib 0.48; inactive. HIF3A showed cell gain with vemurafenib 0.99; lactate per cell with vemurafenib 0.46; inactive. Depletion of ATF7 came out at: cell gain with vemurafenib 0.88; lactate per cell with vemurafenib 0.96; inactive.

Silencing of CD44 came out at: cell gain with vemurafenib 0.34; lactate per cell with vemurafenib 1.68; inactive. Knock-down of RSPRY1 came out at: cell gain with vemurafenib 1.02; lactate per cell with vemurafenib 0.65; inactive. MDK scored cell gain with vemurafenib 0.54; lactate per cell with vemurafenib 1.79; inactive. Against GLIPR2, the entry reads cell gain with vemurafenib 0.48; lactate per cell with vemurafenib 0.86; inactive.

2 successive records already listed:
RSPRY1 → cell gain with vemurafenib: 1.02; lactate per cell with vemurafenib: 0.65; Call: inactive
MDK → cell gain with vemurafenib: 0.54; lactate per cell with vemurafenib: 1.79; Call: inactive
